Experimental data taken from the supplement of paper PMC7666118.
Some of the results follow.

By UniProt entry, the sequences of proteins in these tests, tags left out. Where a name states a change or a piece, a line headed by the entry shows the natural chain unless it says otherwise.
UniProt Q01433: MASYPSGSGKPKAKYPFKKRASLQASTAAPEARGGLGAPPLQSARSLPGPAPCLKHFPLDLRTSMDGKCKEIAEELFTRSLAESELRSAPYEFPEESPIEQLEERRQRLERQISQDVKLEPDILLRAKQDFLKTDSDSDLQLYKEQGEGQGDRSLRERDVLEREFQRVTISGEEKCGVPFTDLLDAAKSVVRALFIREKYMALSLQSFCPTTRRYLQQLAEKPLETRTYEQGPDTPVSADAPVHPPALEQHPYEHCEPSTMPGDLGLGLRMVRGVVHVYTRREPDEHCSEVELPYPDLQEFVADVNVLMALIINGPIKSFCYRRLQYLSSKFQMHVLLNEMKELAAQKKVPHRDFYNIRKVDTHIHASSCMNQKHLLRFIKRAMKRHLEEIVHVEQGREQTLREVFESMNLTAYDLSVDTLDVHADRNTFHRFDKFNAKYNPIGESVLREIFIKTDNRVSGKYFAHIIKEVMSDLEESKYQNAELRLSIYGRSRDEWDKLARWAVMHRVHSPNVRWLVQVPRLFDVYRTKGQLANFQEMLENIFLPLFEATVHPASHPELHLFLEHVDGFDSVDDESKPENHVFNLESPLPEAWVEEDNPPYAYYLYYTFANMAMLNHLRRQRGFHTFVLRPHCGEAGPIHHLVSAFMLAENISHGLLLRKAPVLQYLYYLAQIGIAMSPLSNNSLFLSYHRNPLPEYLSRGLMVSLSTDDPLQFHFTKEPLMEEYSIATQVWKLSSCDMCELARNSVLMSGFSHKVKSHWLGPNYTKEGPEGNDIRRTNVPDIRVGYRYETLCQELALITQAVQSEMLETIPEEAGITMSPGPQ
UniProt Q8NHH9: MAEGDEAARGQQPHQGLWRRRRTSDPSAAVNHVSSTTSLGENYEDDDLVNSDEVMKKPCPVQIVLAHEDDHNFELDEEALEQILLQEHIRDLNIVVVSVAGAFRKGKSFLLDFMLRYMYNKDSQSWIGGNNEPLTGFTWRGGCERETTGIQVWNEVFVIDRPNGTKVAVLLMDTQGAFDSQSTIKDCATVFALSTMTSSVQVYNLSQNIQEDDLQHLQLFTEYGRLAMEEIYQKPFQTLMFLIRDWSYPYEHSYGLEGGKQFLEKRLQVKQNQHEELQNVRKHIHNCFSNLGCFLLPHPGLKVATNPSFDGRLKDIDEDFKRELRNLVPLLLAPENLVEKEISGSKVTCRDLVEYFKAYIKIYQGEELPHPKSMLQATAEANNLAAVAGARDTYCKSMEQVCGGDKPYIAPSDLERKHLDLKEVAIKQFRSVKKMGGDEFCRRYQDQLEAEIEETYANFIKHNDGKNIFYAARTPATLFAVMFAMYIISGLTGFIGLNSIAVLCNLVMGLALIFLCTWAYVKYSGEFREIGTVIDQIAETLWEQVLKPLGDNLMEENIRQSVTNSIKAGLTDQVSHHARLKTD
UniProt Q13017, whole entry: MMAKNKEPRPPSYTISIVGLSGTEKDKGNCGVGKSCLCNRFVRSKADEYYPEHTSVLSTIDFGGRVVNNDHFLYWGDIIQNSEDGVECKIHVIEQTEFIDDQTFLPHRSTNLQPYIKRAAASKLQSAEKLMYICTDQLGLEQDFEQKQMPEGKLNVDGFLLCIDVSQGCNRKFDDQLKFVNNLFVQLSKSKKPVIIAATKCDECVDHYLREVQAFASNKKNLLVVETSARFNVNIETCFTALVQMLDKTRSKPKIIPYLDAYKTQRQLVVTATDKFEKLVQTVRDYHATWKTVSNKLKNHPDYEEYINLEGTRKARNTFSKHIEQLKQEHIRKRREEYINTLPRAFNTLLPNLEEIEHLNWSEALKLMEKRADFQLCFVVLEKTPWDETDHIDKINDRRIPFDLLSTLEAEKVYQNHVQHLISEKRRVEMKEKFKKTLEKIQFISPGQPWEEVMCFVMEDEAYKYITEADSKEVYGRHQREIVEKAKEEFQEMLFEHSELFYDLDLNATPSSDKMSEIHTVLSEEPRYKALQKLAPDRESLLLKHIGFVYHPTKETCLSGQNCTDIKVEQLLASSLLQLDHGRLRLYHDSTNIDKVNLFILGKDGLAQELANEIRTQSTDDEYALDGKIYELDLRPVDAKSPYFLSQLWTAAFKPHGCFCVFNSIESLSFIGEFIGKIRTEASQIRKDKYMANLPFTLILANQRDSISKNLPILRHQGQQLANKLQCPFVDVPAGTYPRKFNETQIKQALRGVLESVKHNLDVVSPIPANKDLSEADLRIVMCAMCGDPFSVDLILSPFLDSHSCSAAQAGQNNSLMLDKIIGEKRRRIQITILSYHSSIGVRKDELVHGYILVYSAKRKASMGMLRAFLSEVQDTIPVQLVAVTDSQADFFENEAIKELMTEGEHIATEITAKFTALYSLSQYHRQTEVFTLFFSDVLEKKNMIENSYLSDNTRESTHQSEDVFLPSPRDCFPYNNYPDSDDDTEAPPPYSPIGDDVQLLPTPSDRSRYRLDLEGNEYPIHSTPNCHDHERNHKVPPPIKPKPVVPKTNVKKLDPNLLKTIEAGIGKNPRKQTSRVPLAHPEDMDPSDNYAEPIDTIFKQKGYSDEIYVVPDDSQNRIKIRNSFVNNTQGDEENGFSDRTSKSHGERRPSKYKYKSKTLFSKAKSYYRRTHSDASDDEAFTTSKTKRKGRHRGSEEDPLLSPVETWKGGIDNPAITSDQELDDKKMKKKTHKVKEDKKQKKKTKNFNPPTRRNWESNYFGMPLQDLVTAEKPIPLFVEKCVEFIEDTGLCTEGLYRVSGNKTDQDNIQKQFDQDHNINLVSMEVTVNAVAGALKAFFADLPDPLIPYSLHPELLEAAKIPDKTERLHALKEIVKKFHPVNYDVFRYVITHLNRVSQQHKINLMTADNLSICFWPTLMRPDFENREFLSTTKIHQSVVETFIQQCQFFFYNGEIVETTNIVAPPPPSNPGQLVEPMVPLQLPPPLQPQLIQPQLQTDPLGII
UniProt O75915: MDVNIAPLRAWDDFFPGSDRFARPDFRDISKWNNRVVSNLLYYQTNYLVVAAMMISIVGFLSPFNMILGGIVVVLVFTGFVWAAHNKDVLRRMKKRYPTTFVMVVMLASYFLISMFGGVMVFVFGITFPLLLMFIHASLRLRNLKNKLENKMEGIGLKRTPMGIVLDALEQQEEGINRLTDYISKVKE
UniProt Q86W74: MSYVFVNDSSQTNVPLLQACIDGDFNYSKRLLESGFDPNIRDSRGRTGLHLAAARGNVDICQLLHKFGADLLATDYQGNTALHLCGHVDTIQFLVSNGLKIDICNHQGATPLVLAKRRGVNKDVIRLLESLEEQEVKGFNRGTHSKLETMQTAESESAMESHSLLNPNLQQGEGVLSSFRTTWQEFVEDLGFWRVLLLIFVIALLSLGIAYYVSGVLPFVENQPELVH
UniProt Q96Q83: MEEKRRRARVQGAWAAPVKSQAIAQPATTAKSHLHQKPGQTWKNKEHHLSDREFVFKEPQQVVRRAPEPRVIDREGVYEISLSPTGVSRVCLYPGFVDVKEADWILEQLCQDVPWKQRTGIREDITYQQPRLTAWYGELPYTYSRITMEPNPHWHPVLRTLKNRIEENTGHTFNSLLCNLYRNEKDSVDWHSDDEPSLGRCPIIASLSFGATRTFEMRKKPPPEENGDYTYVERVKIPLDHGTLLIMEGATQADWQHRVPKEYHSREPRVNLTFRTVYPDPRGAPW
UniProt P54886: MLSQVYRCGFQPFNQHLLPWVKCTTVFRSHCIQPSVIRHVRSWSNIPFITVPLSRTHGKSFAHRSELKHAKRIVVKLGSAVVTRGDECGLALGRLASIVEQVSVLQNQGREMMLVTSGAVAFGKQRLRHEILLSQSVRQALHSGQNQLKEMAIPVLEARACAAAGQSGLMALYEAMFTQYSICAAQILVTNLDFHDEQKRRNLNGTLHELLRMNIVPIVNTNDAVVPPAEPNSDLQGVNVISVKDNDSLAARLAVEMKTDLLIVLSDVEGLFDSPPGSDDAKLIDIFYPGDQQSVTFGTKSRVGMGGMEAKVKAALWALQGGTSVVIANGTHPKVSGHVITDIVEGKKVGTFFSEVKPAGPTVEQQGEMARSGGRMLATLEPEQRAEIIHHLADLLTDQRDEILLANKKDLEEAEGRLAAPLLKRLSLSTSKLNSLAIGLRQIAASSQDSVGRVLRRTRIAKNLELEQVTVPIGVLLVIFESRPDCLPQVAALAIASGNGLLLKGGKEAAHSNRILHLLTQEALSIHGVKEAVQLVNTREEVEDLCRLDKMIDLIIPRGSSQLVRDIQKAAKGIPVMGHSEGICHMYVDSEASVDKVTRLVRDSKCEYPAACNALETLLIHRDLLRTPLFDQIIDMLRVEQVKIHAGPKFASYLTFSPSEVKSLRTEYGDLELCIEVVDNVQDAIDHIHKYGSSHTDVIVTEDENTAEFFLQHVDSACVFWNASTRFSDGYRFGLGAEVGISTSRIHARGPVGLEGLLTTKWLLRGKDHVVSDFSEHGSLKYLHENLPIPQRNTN
UniProt Q96NW4, whole entry: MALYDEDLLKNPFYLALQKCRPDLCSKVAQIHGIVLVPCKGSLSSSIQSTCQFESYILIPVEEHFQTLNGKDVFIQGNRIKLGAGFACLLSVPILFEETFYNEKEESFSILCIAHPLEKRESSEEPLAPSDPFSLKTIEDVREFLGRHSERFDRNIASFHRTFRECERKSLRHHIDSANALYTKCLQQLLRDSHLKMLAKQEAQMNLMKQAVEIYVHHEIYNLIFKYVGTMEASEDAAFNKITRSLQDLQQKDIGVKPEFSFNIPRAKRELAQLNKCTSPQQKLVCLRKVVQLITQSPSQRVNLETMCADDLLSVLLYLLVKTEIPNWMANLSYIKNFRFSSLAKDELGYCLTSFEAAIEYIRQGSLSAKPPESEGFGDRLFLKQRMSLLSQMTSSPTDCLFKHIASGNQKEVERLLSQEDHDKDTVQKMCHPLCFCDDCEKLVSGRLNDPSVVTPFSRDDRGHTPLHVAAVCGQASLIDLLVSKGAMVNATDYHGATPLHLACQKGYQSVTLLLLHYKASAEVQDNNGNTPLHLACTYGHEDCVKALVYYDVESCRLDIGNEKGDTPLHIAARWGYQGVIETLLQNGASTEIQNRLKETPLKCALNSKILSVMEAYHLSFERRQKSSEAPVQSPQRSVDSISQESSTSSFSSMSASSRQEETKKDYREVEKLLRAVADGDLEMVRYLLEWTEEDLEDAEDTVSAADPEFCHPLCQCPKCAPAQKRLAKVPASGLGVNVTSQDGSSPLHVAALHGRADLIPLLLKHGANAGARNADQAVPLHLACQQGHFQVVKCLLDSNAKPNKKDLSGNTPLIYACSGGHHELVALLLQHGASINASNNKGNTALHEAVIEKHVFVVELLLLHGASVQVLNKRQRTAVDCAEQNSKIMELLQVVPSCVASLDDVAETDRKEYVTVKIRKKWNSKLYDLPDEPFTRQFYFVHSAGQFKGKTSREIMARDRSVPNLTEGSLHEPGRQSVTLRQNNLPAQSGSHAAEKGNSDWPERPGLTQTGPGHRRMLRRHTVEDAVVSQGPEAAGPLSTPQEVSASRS
UniProt Q96HN2, whole entry: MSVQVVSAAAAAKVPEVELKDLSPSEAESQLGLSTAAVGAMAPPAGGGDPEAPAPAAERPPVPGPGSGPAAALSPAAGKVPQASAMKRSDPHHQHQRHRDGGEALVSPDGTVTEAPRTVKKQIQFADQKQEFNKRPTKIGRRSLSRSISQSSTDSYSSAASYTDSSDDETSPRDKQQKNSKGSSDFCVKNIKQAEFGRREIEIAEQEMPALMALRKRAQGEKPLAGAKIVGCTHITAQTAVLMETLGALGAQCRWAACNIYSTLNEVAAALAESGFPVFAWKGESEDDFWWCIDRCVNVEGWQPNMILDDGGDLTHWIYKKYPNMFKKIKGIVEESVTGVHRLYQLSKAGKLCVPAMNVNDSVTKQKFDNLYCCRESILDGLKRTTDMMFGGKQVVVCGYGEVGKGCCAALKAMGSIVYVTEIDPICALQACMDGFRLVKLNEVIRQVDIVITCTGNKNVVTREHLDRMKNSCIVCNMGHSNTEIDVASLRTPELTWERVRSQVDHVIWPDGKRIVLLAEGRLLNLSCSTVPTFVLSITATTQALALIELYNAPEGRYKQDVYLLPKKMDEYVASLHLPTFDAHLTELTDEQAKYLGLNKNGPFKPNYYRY
UniProt Q9UH17: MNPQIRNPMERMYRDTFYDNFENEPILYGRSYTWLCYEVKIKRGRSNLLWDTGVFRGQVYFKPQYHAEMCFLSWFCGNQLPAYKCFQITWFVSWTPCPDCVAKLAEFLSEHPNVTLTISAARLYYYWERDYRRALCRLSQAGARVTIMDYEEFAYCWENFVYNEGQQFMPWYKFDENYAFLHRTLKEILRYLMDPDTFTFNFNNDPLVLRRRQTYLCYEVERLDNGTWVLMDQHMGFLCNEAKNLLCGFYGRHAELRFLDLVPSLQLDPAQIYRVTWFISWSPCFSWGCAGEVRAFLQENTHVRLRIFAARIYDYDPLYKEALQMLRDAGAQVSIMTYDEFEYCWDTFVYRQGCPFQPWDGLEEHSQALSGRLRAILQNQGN
UniProt Q8N2Z9: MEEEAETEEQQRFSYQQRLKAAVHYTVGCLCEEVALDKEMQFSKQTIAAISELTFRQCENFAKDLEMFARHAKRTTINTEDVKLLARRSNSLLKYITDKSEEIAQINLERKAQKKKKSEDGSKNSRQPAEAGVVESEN

The targets below were run with COc1ccc(Cn2ccc3cc(C)c(C(=O)NO)cc32)cc1 (assay: dose-dependent thermal stabilisation call (2D-TPP, DLPTP, 10% FDR) (binary (1 = stabilised)); higher = stabilised by the compound). Conditions: system: HL-60 intact cells; concentration range 0.04-10 µM.
Procedure: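 2D thermal proteome profiling in intact HL-60 cells treated with BRD-3811 (0, 0.04, 0.29, 2, 10 uM) for 90 min at 37 C, then heated 3 min at one of 12 temperatures (42-63.9 C). Soluble protein was quantified by TMT10 MS. The value is the DLPTP call of the paper: dose-dependent thermal stabilisation over all temperatures at 10% FDR (F-test of a dose-response against a flat model); one experiment, one call per tested protein.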

Row | Target | dose-dependent thermal stabilisation call
1 | APRT (UniProt P07741) | inactive: 0
2 | AMPD2 (UniProt Q01433) | inactive: 0
3 | AFTPH (UniProt Q6ULP2) | inactive: 0
4 | ALG3 (UniProt Q92685) | inactive: 0
5 | AP1M1 (UniProt Q9BXS5) | inactive: 0
6 | ATL2 (UniProt Q8NHH9) | inactive: 0
7 | ARF6 (UniProt P62330) | inactive: 0
8 | AKR1A1 (UniProt P14550) | inactive: 0
9 | AP1G1 (UniProt O43747) | inactive: 0
10 | ARPC5L (UniProt Q9BPX5) | inactive: 0
11 | AHCTF1 (UniProt Q8WYP5) | inactive: 0
12 | ARHGAP5 (UniProt Q13017) | inactive: 0
13 | AHCY (UniProt P23526) | inactive: 0
14 | ATF7IP (UniProt Q6VMQ6) | inactive: 0
15 | AGXT2L2 (UniProt Q8IUZ5) | inactive: 0
16 | ARL6IP5 (UniProt O75915) | inactive: 0
17 | ANKRD46 (UniProt Q86W74) | inactive: 0
18 | ANKLE2 (UniProt Q86XL3) | inactive: 0

Row | Target | dose-dependent thermal stabilisation call
19 | ANKHD1-EIF4EBP3 | inactive: 0
20 | ALKBH3 (UniProt Q96Q83) | inactive: 0
21 | ALDH18A1 (UniProt P54886) | inactive: 0
22 | ANKRD27 (UniProt Q96NW4) | inactive: 0
23 | ARFRP1 (UniProt Q13795) | inactive: 0
24 | AGAP3 (UniProt Q96P47) | inactive: 0
25 | ALDH1A2 (UniProt O94788) | inactive: 0
26 | ANKH (UniProt Q9HCJ1) | inactive: 0
27 | AK3L1 | inactive: 0
28 | ALG10 (UniProt Q5BKT4) | inactive: 0
29 | AHCYL2 (UniProt Q96HN2) | inactive: 0
30 | ALCAM (UniProt Q13740) | inactive: 0
31 | ARL6IP1 (UniProt Q15041) | inactive: 0
32 | APOBEC3B (UniProt Q9UH17) | inactive: 0
33 | ASAH1 (UniProt Q13510) | inactive: 0
34 | APITD1 (UniProt Q8N2Z9) | inactive: 0
35 | ANKRD13D (UniProt Q6ZTN6) | inactive: 0
36 | AKNA (UniProt Q7Z591) | inactive: 0

Random excerpt: 2 records from the list
Row | Target | dose-dependent thermal stabilisation call
24 | AGAP3 (UniProt Q96P47) | inactive: 0
34 | APITD1 (UniProt Q8N2Z9) | inactive: 0
